Results on 28 substances are retold here after patent US4797469 (dated 1989).

Square brackets hold non-standard residues; d marks the D form. Ends that are not written are not given here. * marks the point of attachment. Arg(NO2) = N=C(NCCC[C@H](N)C(=O)O)N[N+](=O)[O-]; Cbz = O=C(OCc1ccccc1)*; Boc = CC(C)(C)OC(=O)*; NHNH2 = NN*

The data set in a line: general procedure: solution-phase peptide synthesis; BOP; active esters (ONp, ONSu, OTCP, ONb) with HOBT; NEM. The note with it: for purity (crude or final not stated) / crude HPLC purity: HPLC (EPP).

Under “coupling step”, “Boc-Glu(0Bzl)-Ser-Asn-Gln-Glu(0Bzl)-Arg-Gly-Ala-Arg-Ala-Arg-Leu-NH2, HCl” showed a step yield of 90%.

The substance Boc-IFTNS-NHNH2 had a step yield (late stage modification step) of 78.8%.

Regarding “H-Leu-Gln-Asp(0Bzl)-Ile-Met-Ser-Arg-Glu-Gln-Gly-Glu(0Bzl)-Ser-Asn-Gln-Glu(0Bzl)-Arg-Gly-Ala-Arg-Ala-Arg-Leu-NH2, TFA, HCl”, where the note is “late stage modification step”, the step yield is on record as 96.1%.

Regarding Boc-Gln-Glu(0Bzl)-Arg(HCl)-Gly-OH, where the note is “coupling step”, the step yield was determined as 94.9% and the “purity (crude or final not stated)” value was “EPP=96.5%”.

For Boc-Tyr-Arg(Hcl)-Lys(Z)-Val-Leu-Gly-OH, under “late stage modification step”, the step yield was determined as 74.7% and the “purity (crude or final not stated)” value was “HPLC-EPP 91.52%”.

In the case of “Boc-Leu-Gln-Asp(0Bzl)-Ile-Met-NH-NH-Troc”, the step yield (coupling step) is 77%.

Where the note is “coupling step”, “Boc-Ile-Phe-Thr-Asn-Ser-Tyr-Arg-Lys(Z)-Val-Leu-Gly-Gln-Leu-Ser-Ala-Arg(MTS)-Lys(Z)-Leu-Leu-Gln-Asp(0Bzl)-Ile-Met-Ser-Arg-Gln-Gln-Gly-Glu(0Bzl)-Ser-Asn-Gln-Glu(0Bzl)-Arg-Gly-Ala-Arg-Ala-Arg-Leu-NH2, HCl” showed a step yield of 90%.

In turn, TFA H-Lys(Z)-Val-Leu-Gly-OCH3 came in with a step yield (late stage modification step) of 94.7%.

In turn, Boc-IFTNS-OMe showed a step yield (coupling step) of 85.9%.

As to Boc-FTNS-OMe, for the setting “coupling step”, the step yield worked out at 93.5%.

As for Boc-K(Cbz)VLG-OMe, where the note is “coupling step”, the step yield is listed as 86%.

Where the note is “coupling step”, Boc-Gln-Asp(0Bzl)-Ile-Met-NH-NH-Troc came in with a step yield of 80%.

With [Arg(NO2)]A[Arg(NO2)]L-NH2, the step yield (coupling step) worked out at 85%.

For the setting “late stage modification step”, “H-Tyr-Arg-Lys(Z)-Val-Leu-Gly-Gln-Leu-Ser-Arg-OCH3, HCl, TFA” registered a step yield of 100%.

In the case of Boc-SRQQG-OMe, the step yield (late stage modification step) is on record as 97.8%.

With “Boc-Tyr-Arg(Z)-Val-Leu-Gly-Gln-Leu-Ser-Ala-OCH3, HCl”, for the setting “coupling step”, the step yield stood at 90% and the “crude HPLC purity” value is listed as “EPP: 92%”.

In the case of Boc-QLSA-OMe, under “coupling step”, the “purity (crude or final not stated)” value is listed as “EPP=91%”.

For the setting “late stage modification step”, TFA, H-Phe-Thr-Asn-Ser-OMe gave a step yield of 48.5%.

“Boc-Gln-Glu(0Bzl)Arg-Gly-Ala-Arg-Ala-Arg-Leu-NH2, HCl” showed a step yield (coupling step) of 87%.

“Boc-Arg(MTS)-Lys(Z)-Leu-Leu-Gln-Asp(0Bzl)-Ile-Met-Ser-Arg-Gln-Gln-Gly-Glu(0Bzl)-Ser-Asn-Gln-Glu(0Bzl)-Arg-Gly-Ala-Arg-Ala-Arg-Leu, NH2, HCl” showed a step yield (coupling step) of 80.4%.

“Boc-Leu-Gln-Asp(0Bzl)-Ile-Met-Ser-Arg-Gln-Gln-Gly-Glu(0Bzl)-Ser-Asn-Gln-Glu(0Bzl)-Arg-Gly-Ala-Arg-Ala-Arg-Leu-NH2, HCl” showed a step yield (coupling step) of 87.16%.

Turning to Boc-S[Arg(NO2)]QQG-OMe, where the note is “coupling step, over 4 steps”, the step yield is recorded as 94.2%.

Regarding “Boc-Ile-Phe-Thr-Asn-Ser-Tyr-Arg-Lys(Z)-Val-Leu-Gly-Gln-Leu-Ser-Ala-OCH3, HCl”, for the setting “coupling step”, the step yield came to 86% and the “crude HPLC purity” value is recorded as “EPP: 90%”. Also, the step yield (coupling step, overall) was determined as 95%.

For Boc-Arg(HCl)-Lys(Z)-Val-Leu-Gly-OCH3, the step yield (coupling step) is 78.7%.

Under “late stage modification step”, “H-Ile-Phe-Thr-Asn-Ser-Tyr-Arg-Lys(Z)-Val-Leu-Gly-Gln-Leu-Ser-Ala-Arg(MTS)- Lys(Z)-Leu-Leu-Gln-Asp(0Bzl)-Ile-Met-Ser-Arg-Gln-Gln-Gly-Glu(0Bzl)-Ser-Asn- Gln-Glu(0Bzl)-Arg-Gly-Ala-Arg-Ala-Arg-Leu-NH2, HCl, TFA.” showed a step yield of 100%.

The substance Boc-Leu-Gln-Asp(0Bzl)-Ile-Met-NH-NH2 showed a step yield (late stage modification step) of 78%.

In the case of Cbz-A[Arg(NO2)]A[Arg(NO2)]L-NH2, the step yield (coupling step) was 76%.

Consider “Boc-Tyr-Arg(HCl)-Lys(Z)-Val-Leu-Gly-OCH3”, for which, where the note is “coupling step”, the step yield is reported as 96% and the “purity (crude or final not stated)” value came out at 93.81% EPP.
